The source of these data is patent KR20140018819A.

By UniProt entry, the sequences of proteins in these tests, tags left out. Where a name states a change or a piece, a line headed by the entry shows the natural chain unless it says otherwise. Chains listed by the source or under a name are the forms on record and can include a tag or linker.
생쥐 간 조직의 TM4SF5 (Q9D8G1, form named): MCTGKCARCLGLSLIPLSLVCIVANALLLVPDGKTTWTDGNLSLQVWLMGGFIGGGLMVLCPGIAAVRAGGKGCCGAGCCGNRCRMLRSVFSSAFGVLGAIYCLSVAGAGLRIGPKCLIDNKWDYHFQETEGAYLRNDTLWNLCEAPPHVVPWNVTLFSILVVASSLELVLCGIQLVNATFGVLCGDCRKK

Results are given in words; binding and its absence hold for the method and conditions named. Some binding calls cover weakened binding; strength is not graded here. Sequences can lack the tags named with a protein.

The target of test [1] is 생쥐 간 조직의 TM4SF5 (mouse) (UniProt Q9D8G1). The experiment in a line: summary of mouse liver tissue staining (Fig. 15).
The target is the same in test [2]. The experiment in a line: immunofluorescence staining of liver sections of CCl4-treated mice, antibody 3㎍/mL.

B1: 항-TM4SF5 항체 #27 (scFv-Fc) (Fc fusion)
VH: QVQLQQFGAELVRPGASVTLSCKASGYTFTDYEMHWVKQTPVHGLEWIGAIDPETGGTAYNQKFKGKAILTADKSSSTAYMELRSLTSEDSAVYYCTRPYLGYWGQGTTVTVSS
VL: DAVVTQTPLSLPVSLGDQASISCRSSQSLVHSNGNTYLHWYLQKPGQSPKLLIYKVSNRFSGVPDRFSGSGSGTDFTLKISRVEAEDLGVYYCFQGSHIPLTFGAGTKLELK
Turning to B1, the binding entry in test [1] and in test [2] was “binds” throughout.
